Data reported in US11279736B2, “Conformationally-preorganized, MiniPEG-containing gamma-peptide nucleic acids” (CARNEGIE MELLON UNIVERSITY, priority 2011, dated 2022).
Some of these results come from one statement about several compounds together.

test system: immobilized complementary DNA; assay: Surface plasmon resonance (SPR) hybridization kinetics; assay type: binding; settings: Table 3 versus Table 2, DNA target
Experimental: FIG. 4 illustrates surface plamon resonance (SPR) sensorgrams (solid black lines) and fits (dotted lines) for hybridization of PNA probes to immobilized complementary DNA. Solutions contained 30 nM PNA. Error bars at t=420 sec illustrate standard deviations for three separate trials.
Surface plasmon resonance (SPR) analysis is used to study the hybridization kinetics of ^R-MPγPNA-DNA and ^R-MPγPNA-RNA duplexes. Briefly, SPR was performed as follows. According to one embodiment, the PNA probe was immobilized to the chip while the DNA target was captured from solution. In another embodiment, a biotinylated version of the DNA target is immobilized on a streptavidin-conjugated, carboxymethylated dextran chip at a relatively low surface density (ca. 100 response units) of DNA targets to limit mass transport effects on the association kinetics. Solutions containing 10-50 nM PNA oligomers are allowed to flow over the chip for about 420 seconds, at which point the flow is switched to a PNA-free buffer to allow net dissociation of the hybridized PNA.

Substance | SPR-derived Kd relative to Kd determined by UV melting experiments
H-GCATGTTTGA-NH2 [PNA1] (all peptide nucleic acid (PNA); C-terminal amide) | similar
H-GCATGTTTGA-NH2 [PNA2] (PNA; 1 R-MP-gamma unit; C-terminal amide; modified_base (6)..(6) R-MP-gamma-backbone modified nucleotide) | similar
H-GCATGTTTGA-NH2 [PNA3] (PNA; 3 R-MP-gamma units; C-terminal amide; modified_base (4)..(4) R-MP-gamma-backbone modified nucleotide; modified_base (6)..(6) R-MP-gamma-backbone modified nucleotide; modified_base (8)..(8) R-MP-gamma-backbone modified nucleotide) | similar
